Results from PubChem BioAssay AID330 (DTP/NCI, 2004).
The list shows only some results of the screen, not a fair sample: it gathers tests that were run many times, whatever their T/C, doses with no T/C, and many T/C values between a quarter and a half above the control. Further doses and runs are listed elsewhere. T/C is the treated group as % of the vehicle group. Some doses have a count of surviving animals in place of a T/C: the source files T/C as zero there, which appears to mark a toxic dose or a test without result, not a measured value. Some doses without a T/C left all or most animals alive at the check, yet need not have been tolerated: survival well below the control is almost never listed, so the zero probably covers shortened survival too. Counts of survivors are from the toxicity check (mostly the fifth day) where no day follows; animals may have died later. Schedule codes are those of the source, taken here to give the interval after Q, in days (D) or hours (H), and the number of doses after X. Some entries hold several experiments; the results are listed from low to high. For survival time, the PubChem record calls one and a half times the control and up active, and a quarter to a half above the control has no call in these data; cut-offs in other NCI protocols can differ. Some T/C values are followed by the survivors on the day toxicity was checked, most often the fifth; without a count, all were alive then.

Tested on: P388 leukemia ip, CD2F1 mice, survival T/C
Experiment: NCI In Vivo Anticancer Drug Screen. Data for tumor model P388 Leukemia (intraperitoneal) in CD2F1 (CDF1) mice
Details: T/C endpoint: median survival time, higher T/C = longer survival
[1] = dose: 50.0 mg/kg/injection, schedule: Q01DX009 (ip), vehicle: saline with Tween-80
[2] = dose: 100.0 mg/kg/injection, schedule: Q01DX009 (ip), vehicle: saline with Tween-80
[3] = dose: 200.0 mg/kg/injection, schedule: Q01DX009 (ip), vehicle: saline with Tween-80
[4] = dose: 200.0 mg/kg/injection, schedule: Q01DX009 (ip), vehicle: saline
[5] = dose: 25.0 mg/kg/injection, schedule: Q04DX002 (ip), vehicle: saline with Tween-80
[6] = dose: 200.0 mg/kg/injection, schedule: Q01DX009 (ip), vehicle: Klucel (hydroxypropylcellulose) (HPC)

**Q.** Which survivor count (dose: 240.0 mg/kg/injection, schedule: Q01DX005 (ip), vehicle: Klucel (hydroxypropylcellulose) (HPC)) does the source give for `COC(=O)c1nc(N)nc(C(=O)OC)c1C(=O)c1ccc(F)cc1` here?
**A.** 0 of 6

**Q.** With `O=C1C2C3CCC(O3)C2C(=O)N1CO` (stereo unspecified) as the compound, how does the survivor count (dose: 240.0 mg/kg/injection, schedule: Q01DX005 (ip), vehicle: saline) read?
**A.** 3 of 6

**Q.** Which results are given for `CS(=O)(=O)OCCF`?
**A.** survivor count (dose: 25.0 mg/kg/injection, schedule: Q01DX009 (ip), vehicle: saline with Tween-80): 2 of 6 and 4 of 6; survivor count [1]: 0 of 6; survivor count (dose: 100.0 mg/kg/injection, schedule: Q01DX001 (ip), vehicle: saline with Tween-80): 0 of 6; survivor count [2]: 0 of 6; survivor count (dose: 200.0 mg/kg/injection, schedule: Q01DX001 (ip), vehicle: saline with Tween-80): 0 of 6; survivor count [3]: 0 of 6; survivor count (dose: 400.0 mg/kg/injection, schedule: Q01DX001 (ip), vehicle: saline with Tween-80): 0 of 6

**Q.** With `Nc1c(CC(=O)O)cccc1C(=O)c1ccccc1` as the compound, how does the survivor count [4] read?
**A.** 4 of 6

**Q.** Which results are given for `O=C1CC(c2ccccc2)C(c2ccccc2)C1=O` (stereo unspecified)?
**A.** survivor count (dose: 100.0 mg/kg/injection, schedule: Q04DX003 (ip), vehicle: Klucel (hydroxypropylcellulose) (HPC)): 6 of 6; survivor count (dose: 200.0 mg/kg/injection, schedule: Q04DX003 (ip), vehicle: Klucel (hydroxypropylcellulose) (HPC)): 6 of 6; survivor count (dose: 400.0 mg/kg/injection, schedule: Q04DX003 (ip), vehicle: Klucel (hydroxypropylcellulose) (HPC)): 6 of 6

**Q.** How did the survivor count [4] turn out when `CCOC(=O)C(C)NO` (stereo unspecified) was run?
**A.** 6 of 6

**Q.** For `CCCCCCCCCCCCN1C(C)=CS/C1=C\C=C\c1scc(C)[n+]1CCCCCCCCCCCC`, which T/C (dose: 0.75 mg/kg/injection, schedule: Q01DX005 (ip), vehicle: saline with Tween-80) is on record?
**A.** 129 % of control

**Q.** What about the T/C (dose: 1.5 mg/kg/injection, schedule: Q01DX005 (ip), vehicle: saline with Tween-80) of the same compound?
**A.** 133 and 144 % of control

**Q.** What about the T/C (dose: 1.56 mg/kg/injection, schedule: Q04DX002 (ip), vehicle: saline with Tween-80) of the same compound?
**A.** 125 and 144 % of control

**Q.** What about the T/C (dose: 3.0 mg/kg/injection, schedule: Q01DX005 (ip), vehicle: saline with Tween-80) of the same compound?
**A.** 149 % of control

**Q.** What about the T/C (dose: 3.13 mg/kg/injection, schedule: Q04DX002 (ip), vehicle: saline with Tween-80) of the same compound?
**A.** 140 % of control

**Q.** What about the survivor count (dose: 6.0 mg/kg/injection, schedule: Q01DX005 (ip), vehicle: saline with Tween-80) of the same compound?
**A.** 6 of 6

**Q.** What about the T/C (dose: 6.25 mg/kg/injection, schedule: Q04DX002 (ip), vehicle: saline with Tween-80) of the same compound?
**A.** 144 % of control [5 of 6 alive]

**Q.** And the survivor count (dose: 12.0 mg/kg/injection, schedule: Q01DX005 (ip), vehicle: saline with Tween-80)?
**A.** 4 of 6 and 6 of 6

**Q.** What about the T/C (dose: 12.5 mg/kg/injection, schedule: Q04DX002 (ip), vehicle: saline with Tween-80) of the same compound?
**A.** 144 % of control [4 of 6 alive]

**Q.** And the T/C [5]?
**A.** 142 % of control [5 of 6 alive]

**Q.** And the survivor count [5]?
**A.** 5 of 6 and 6 of 6

**Q.** What about the survivor count (dose: 50.0 mg/kg/injection, schedule: Q04DX002 (ip), vehicle: saline with Tween-80) of the same compound?
**A.** 3 of 6

**Q.** What about the survivor count (dose: 100.0 mg/kg/injection, schedule: Q04DX002 (ip), vehicle: saline with Tween-80) of the same compound?
**A.** 1 of 6

**Q.** And the survivor count (dose: 200.0 mg/kg/injection, schedule: Q04DX002 (ip), vehicle: saline with Tween-80)?
**A.** 0 of 6

**Q.** With `O=[N+]([O-])C1CCC(O)C([N+](=O)[O-])C1` (stereo unspecified) (tested in a mixture with another compound) as the compound, how does the survivor count [1] read?
**A.** 2 of 6

**Q.** And the survivor count [2]?
**A.** 0 of 6

**Q.** And the survivor count [3]?
**A.** 0 of 6

**Q.** `O=C1OC2(c3ccccc31)c1cc(I)c(O)c(I)c1Oc1c2cc(I)c(O)c1I` was tested. Which survivor count (dose: 400.0 mg/kg/injection, schedule: Q04DX003 (ip), vehicle: saline with Tween-80) did it give?
**A.** 0 of 6

**Q.** For `CCCCN(N=O)C(C)=O`, which survivor count (dose: 400.0 mg/kg/injection, schedule: Q04DX002 (ip), vehicle: saline with Tween-80) is on record?
**A.** 5 of 6

**Q.** How did the survivor count (dose: 50.0 mg/kg/injection, schedule: Q01DX005 (ip), vehicle: Klucel (hydroxypropylcellulose) (HPC)) turn out when `CCOC(=O)/C=C1\COc2nc(N)[nH]c(=O)c2N1` was run?
**A.** 6 of 6

**Q.** For `NC1CN2CCC1CC2` (stereo unspecified), which survivor count (dose: 400.0 mg/kg/injection, schedule: Q01DX009 (ip), vehicle: saline) is on record?
**A.** 0 of 6

**Q.** `Clc1ccccc1Nc1c2ccccc2nc2ccccc12` was tested. Which T/C (dose: 200.0 mg/kg/injection, schedule: Q04DX003 (ip), vehicle: saline) did it give?
**A.** 127 % of control

**Q.** For `CCCCCCCCCCCCCCCC[N+](C)(C)C(C)c1ccccc1` (stereo unspecified), which T/C (dose: 3.13 mg/kg/injection, schedule: Q04DX003 (ip), vehicle: saline with Tween-80) is on record?
**A.** 125 and 126 % of control

**Q.** And the survivor count (dose: 6.25 mg/kg/injection, schedule: Q04DX003 (ip), vehicle: saline with Tween-80)?
**A.** 0 of 6

**Q.** Which results are given for `C/C(=N\N=P(c1ccccc1)(c1ccccc1)c1ccccc1)C(C)(C)C`?
**A.** survivor count (dose: 50.0 mg/kg/injection, schedule: Q01DX009 (ip), vehicle: Klucel (hydroxypropylcellulose) (HPC)): 3 of 6; survivor count (dose: 100.0 mg/kg/injection, schedule: Q01DX009 (ip), vehicle: Klucel (hydroxypropylcellulose) (HPC)): 0 of 6; survivor count [6]: 0 of 6

**Q.** How did the survivor count (dose: 100.0 mg/kg/injection, schedule: Q01DX005 (ip), vehicle: Klucel (hydroxypropylcellulose) (HPC)) turn out when `Cc1nc2ccccc2[n]1[Sn]([CH3])([CH3])[n]1c(C)nc2ccccc21` was run?
**A.** 2 of 6

**Q.** And the survivor count (dose: 200.0 mg/kg/injection, schedule: Q01DX005 (ip), vehicle: Klucel (hydroxypropylcellulose) (HPC))?
**A.** 0 of 6

**Q.** Which results are given for `CC[C@@H](C)[C@H]([C@H](CC(=O)N1CCC[C@@H]1[C@@H](OC)[C@H](C)C(=O)N[C@H](Cc1ccccc1)c1nccs1)OC)N(C)C(=O)[C@H](NC(=O)[C@@H](C(C)C)N(C)C)C(C)C`?
**A.** T/C (dose: 1.63 micrograms/kg/injection, schedule: Q01DX005 (ip), vehicle: saline + alcohol): 137 % of control; T/C (dose: 3.25 micrograms/kg/injection, schedule: Q01DX005 (ip), vehicle: saline + alcohol): 146 % of control; survivor count (dose: 13.0 micrograms/kg/injection, schedule: Q01DX005 (ip), vehicle: saline + alcohol): 6 of 6; survivor count (dose: 26.0 micrograms/kg/injection, schedule: Q01DX005 (ip), vehicle: saline + alcohol): 1 of 6; survivor count (dose: 27.0 micrograms/kg/injection, schedule: Q01DX009 (ip), vehicle: saline + alcohol): 4 of 4; survivor count (dose: 54.0 micrograms/kg/injection, schedule: Q01DX009 (ip), vehicle: saline + alcohol): 4 of 4; survivor count (dose: 108.0 micrograms/kg/injection, schedule: Q01DX009 (ip), vehicle: saline + alcohol): 1 of 4

**Q.** Which survivor count [6] does the source give for `CN(C)c1cc(N(C)C)c2cc(Cl)ccc2n1` here?
**A.** 0 of 6

**Q.** How did the survivor count (dose: 200.0 mg/kg/injection, schedule: Q01DX005 (ip), vehicle: saline with Tween-80) turn out when `COC1CCC(Sc2cccc[n+]2CC(C)=O)CC1OC` (stereo unspecified) was run?
**A.** 0 of 5

**Q.** What does the source list for `O=C(c1ccccc1)N1OC2C=CC1C2` (stereo unspecified)?
**A.** survivor count [2]: 3 of 6; survivor count [3]: 0 of 6

**Q.** For `COc1cc2c(cc1Oc1ccc(OC)c3c1CC1c4c(cc(OC)c(OC)c4-3)CCN1C)CC1c3c(cc(OC)c(OC)c3-2)CCN1C` (stereo unspecified), which survivor count (dose: 320.0 mg/kg/injection, schedule: Q01DX009 (ip), vehicle: water) is on record?
**A.** 0 of 6

**Q.** For `c1ccc2c(c1)C1=NCCN1c1ccccc1-2`, which survivor count (dose: 40.0 mg/kg/injection, schedule: Q01DX009 (ip), vehicle: saline) is on record?
**A.** 6 of 6

**Q.** What about the survivor count (dose: 60.0 mg/kg/injection, schedule: Q01DX009 (ip), vehicle: saline with Tween-80) of the same compound?
**A.** 3 of 6

**Q.** And the survivor count (dose: 60.0 mg/kg/injection, schedule: Q01DX009 (ip), vehicle: saline)?
**A.** 2 of 6

**Q.** `CN1CC2Cc3ccc(O)cc3C(C)(C2)C1` (stereo unspecified) was tested. Which survivor count [2] did it give?
**A.** 0 of 6

**Q.** And the survivor count [3]?
**A.** 0 of 6

**Q.** `Cc1cc(N2CCOCC2)n2c(nc3ccccc32)c1C#N` was tested. Which survivor count (dose: 240.0 mg/kg/injection, schedule: Q01DX005 (ip), vehicle: saline with Tween-80) did it give?
**A.** 5 of 6
